Here are results for 3 substances from publication PMC10943695 (Frontiers in Pharmacology, 2024).

The nature of the series: general procedure: solution-phase peptide synthesis; HATU/DIEA.

HELM strings list residues between dots; [ac] is acetyl, [am] amide, other brackets name non-standard units.

For the substance “PEPTIDE1{[BndPEG3Pr].D.P.V.[KSPi11N]}$$$$V2.0”, under “conjugation step, LC-MS, TFA salt (intermediates), disodium salt (Compound 4)”, the “final LC-MS purity” value stood at 99 % purity. Also, the conjugation yield (conjugation step, TFA salt (intermediates), disodium salt (Compound 4)) was 78 % yield. Besides, the “purity (crude or final not stated)” value (late stage modification step, LC-MS, TFA salt (intermediates), disodium salt (Compound 4)) is given as 100% purity. Further, for the setting “late stage modification step, TFA salt (intermediates), disodium salt (Compound 4)”, the step yield was determined as 99% yield.

Take “PEPTIDE1{[BndPEG3Pr].D.P.V.[MMAE-O]}$$$$V2.0”: the “purity (crude or final not stated)” value (late stage modification step, LC-MS, disodium salt) is given as 96% purity. The step yield (late stage modification step, disodium salt) amounted to 96% yield.

“Trifluoroacetic acid.N-[(benzyloxy)carbonyl]-N-methyl-L-valyl-N-[(3R,4S,5S)-3-methoxy-1-{(2S)-2-[(1R,2R)-1-methoxy-2-methyl-3-oxo-3-{[(1S,2R)-1-phenyl-1-(L-valyloxy)propan-2-yl]amino}propyl]pyrrolidin-1-yl}-5-methyl-1-oxoheptan-4-yl]-N-methyl-L-valinamide (1/1)”: the “crude LC-MS purity” value (late stage modification step, LC-MS, TFA salt) was 100 % purity.
